Patent publication US20260217667A1, “AMYLOID TARGETING AGENTS” (Amydis, Inc., priority 2023, published 2026)

System: 3RTau
Assay: Fluorescence emission spectra of compounds with and without aggregated 3RTau
Type: binding
Protocol: Emission spectra for compound 1 and compound 1a were collected after incubation of the compounds with and without aggregated amyloidogenic protein at specific excitation wavelengths (450 nm and 488 nm) employed in standard ocular imaging equipment. Amyloidogenic proteins (synthetic aggregated amyloid beta (Aβ), α-synuclein (ASYN), transthyretin (TTR), TAR DNA-binding protein 43 (TDP43), and phosphorylated tau (TAU)) were aggregated in vitro using the following procedure. The amyloidogenic protein was removed from the freezer and allowed to warm to room temperature, then 1 mg of amyloidogenic protein was dissolved in 215 μL of ddH2O for about 10-20 mins at room temperature. To the resulting solution, 2 mL of ddH2O was added to provide a 100 μM stock solution. A 100 μL aliquot was sampled and frozen (non-aggregated sample). The tubes were placed in a thermoshaker at 350 rpm for 3 days. Care was taken to avoid generating bubbles. Protein aggregation was confirmed by measuring binding to Thioflavin T (ThT). Aggregated protein was then portioned into 150 μL aliquots and stored at −80° C. The fluorescent emission spectra were measured as follows to determine binding of synthetic aggregated amyloid beta (Aβ), α-synuclein (ASYN), transthyretin (TTR), TAR DNA-binding protein 43 (TDP43), and phosphorylated tau (TAU) to test compounds described herein. The Shimadzu fluorimeter was turned on and allowed to warm up for ~60 minutes. The test compounds were then removed from the −20° C. freezer and were allowed to warm to room temperature. The 100 μM aggregated Aβ solution was then removed from the −80° C. freezer and also allowed to warm to room temperature. 250 μM solutions of each test compound in DMSO were then prepared. These were then used to prepare 4 μM solutions of each test compound, with and without 5 μM aggregated Aβ in 1×PBS, in triplicates. Using a cuvette, the fluorescent emission spectra were measured for each test compound+Aβ solution, employing a DMSO/PBS solution as a blank. Each sample was tested at an excitation of 450 nm and 488 nm. Fluorescent emission spectra were then collected for each 4 μM test compound solution alone. The resulting data were used to plot intensity vs. wavelength for each emission scan. The fold increase at maximum emission (compound+Aβ/compound) is calculated for each test compound.

N#C/C(=C\c1ccc2cc(N3CCCCC3)ccc2c1)C(=O)CCC(O)CO (stereo not shown) [Compound 1a, (E)-6,7-dihydroxy-3-oxo-2-((6-(piperidin-1-yl)naphthalen-2-yl)methylene)heptanenitrile]
Peak emission (excitation 450 nm): 573
Peak emission (excitation 488 nm): 571

N#C/C(=C\c1ccc2cc(N3CCCCC3)ccc2c1)C(=O)CCCOCCOCCO [Compound 1, (E)-6-(2-(2-hydroxyethoxy)ethoxy)-3-oxo-2-((6-(piperidin-1-yl)naphthalen-2-yl)methylene)hexanenitrile]
Peak emission (excitation 450 nm): 571
Peak emission (excitation 488 nm): 577
